Data from patent US10220025B1, “Self-emulsifying formulation of CARP-1 functional mimetics” (Florida A&M University, priority 2016, dated 2019).
Some entries share one result that the patent states for a list of compounds. Some compounds share one range, which may span the group rather than tell each member.

Legend:
[1] = system: Adriamycin-resistant (ADR-R) 4T1 sublines; assay: MTT viability assay, ADR-resistant 4T1 sublines; assay type: cell-based, mouse; conditions: FIG. 10; single agent
[2] = system: 4T1 TNBC cells, wild type; assay: MTT viability assay, parental 4T1; assay type: cell-based, mouse; conditions: FIG. 10; single agent

O=C1N(Cc2ccccc2Cl)c2ccccc2C12NN=C(c1cccc(Cl)c1)S2 (centres unmarked) [CFM-4.16]
loss of viability [1]: 20-30% | reduction / loss of viability [2]: 30-40%
